Test results published in the supplement of paper PMC4604168 (melanoma cell lines).
The other results are listed elsewhere or left out. Repeats are few or missing, and single values can be far off.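 Imaging used 1,536-well plates; nuclei positive for cleaved PARP by antibody were divided by total DNA-stained nuclei to yield the apoptosis fraction. Doses for screening kept most cells viable, and cell lines differ markedly in resting and induced cleaved-PARP levels.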

Assays:
Assay in all cases: cleaved PARP positive nuclei fraction relative to DMSO control; melanoma cells; higher = more apoptosis
Details in all cases: library dose: low library concentration; 72 h
CBRC034 = system: CBRC034 (line from a melanoma biopsy)
COLO792 = system: COLO792
COLO800 = system: COLO800
COLO829 = system: COLO829
G361 = system: G361
IPC-298 = system: IPC-298
IST-MEL1 = system: IST-MEL1
LB2518-MEL = system: LB2518-MEL
LOXIMVI = system: LOXIMVI
MZ2-MEL = system: MZ2-MEL
MeWo = system: MeWo
RPMI7951 = system: RPMI7951
RVH-421 = system: RVH-421
SkMel28 = system: SkMel28
SkMel30 = system: SkMel30
SkMel5 = system: SkMel5
UACC257 = system: UACC257
UACC62 = system: UACC62

SMILES | cleaved PARP positive nuclei fraction (CBRC034) | cleaved PARP positive nuclei fraction (COLO792) | cleaved PARP positive nuclei fraction (COLO800) | cleaved PARP positive nuclei fraction (COLO829) | cleaved PARP positive nuclei fraction (G361) | cleaved PARP positive nuclei fraction (IPC-298) | cleaved PARP positive nuclei fraction (IST-MEL1) | cleaved PARP positive nuclei fraction (LB2518-MEL) | cleaved PARP positive nuclei fraction (LOXIMVI) | cleaved PARP positive nuclei fraction (MZ2-MEL) | cleaved PARP positive nuclei fraction (MeWo) | cleaved PARP positive nuclei fraction (RPMI7951) | cleaved PARP positive nuclei fraction (RVH-421) | cleaved PARP positive nuclei fraction (SkMel28) | cleaved PARP positive nuclei fraction (SkMel30) | cleaved PARP positive nuclei fraction (SkMel5) | cleaved PARP positive nuclei fraction (UACC257) | cleaved PARP positive nuclei fraction (UACC62)
Cc1ccc(NC(=O)c2cccc(N(C)C)c2)cc1NC(=O)c1ccc(O)cc1 + COc1ccc(-c2ccc3c(N4CCOCC4)nc(N4C[C@@H](C)O[C@@H](C)C4)nc3n2)cc1CO [KU0063794] (first compound 2 µM, partner dose 0.02 µM) | 44.6% | 69% | 147% | 56.3% | 130% | 68.4% | 176% | 180% | 43% | 80% | 29% | 39.7% | 40.2% | 134% | 78.2% | 74.8% | 107% | 47.9%
CO[C@@H]1[C@H](N(C)C(=O)c2ccccc2)C[C@H]2O[C@]1(C)n1c3ccccc3c3c4c(c5c6ccccc6n2c5c31)C(=O)NC4 [Midostaurin] + O=C1NC(=O)/C(=C/c2ccc(-c3ccc(F)cc3O)o2)S1 [AS252424] (first compound 0.08 µM, partner dose 1 µM) | 60.8% | 235% | 161% | 112% | 35% | 380% | 47.8% | 268% | 58% | 75.1% | 63.1% | 90.9% | 58.9% | 230% | 12.5% | 87% | 135% | 136%
CO[C@@H]1[C@H](N(C)C(=O)c2ccccc2)C[C@H]2O[C@]1(C)n1c3ccccc3c3c4c(c5c6ccccc6n2c5c31)C(=O)NC4 [Midostaurin] + O=c1cc(-c2cccc3c2Sc2ccccc2S3)oc(N2CCOCC2)c1 [KU55933] (first compound 0.08 µM, partner dose 1 µM) | 128% | 173% | 108% | 33.8% | 145% | 143% | 1250% | 148% | 34.6% | 157% | 234% | 207% | 185% | 61.7% | 91.1% | 62.6% | 44.6% | 42.1%
COCC[n+]1c2c(n(Cc3cnccn3)c1C)C(=O)c1ccccc1C2=O + COc1cc2ncnc(Nc3ccc(Oc4ccccc4)cc3)c2cc1OC [SrcI1] (first compound 0.0004 µM, partner dose 2 µM) | 80% | 21.6% | 81.4% | 81.9% | 81.1% | 104% | 212% | 167% | 30.6% | 159% | 131% | 48.2% | 109% | 120% | 423% | 78% | 141% | 150%
Cc1nc(Nc2ncc(C(=O)Nc3c(C)cccc3Cl)s2)cc(N2CCN(CCO)CC2)n1 [dasatanib] + N#Cc1c(O)c2c(-c3ccc(-c4ccccc4O)cc3)csc2[nH]c1=O [A769662] (first compound 0.004 µM, partner dose 2 µM) | 347% | 234% | 124% | 96.9% | 158% | 167% | 50% | 94.7% | 261% | 111% | 36.3% | 120% | 117% | 202% | 57.3% | 60.9% | 179% | 39.2%
Cc1nc(Nc2ncc(C(=O)Nc3c(C)cccc3Cl)s2)cc(N2CCN(CCO)CC2)n1 [dasatanib] + CCCCCCCCCCCC1=C(O)C(=O)C=C(O)C1=O [Embelin] (first compound 0.004 µM, partner dose 1.2 µM) | 407% | 123% | 121% | 92.2% | 84% | 41.2% | 96.4% | 171% | 118% | 212% | 39.3% | 64.6% | 139% | 158% | 35.8% | 31% | 87% | 38.1%
C#Cc1cccc(Nc2ncnc3cc(OCCOC)c(OCCOC)cc23)c1 [erlotinib] + CCCCCCCCCCCC1=C(O)C(=O)C=C(O)C1=O [Embelin] (first compound 0.8 µM, partner dose 1.2 µM) | 101% | 51.7% | 117% | 129% | 71.6% | 85.7% | 82% | 83.2% | 57.6% | 68.2% | 127% | 88.4% | 19.1% | 123% | 5.4% | 84.2% | 66.4% | 34.7%
Cc1ccc(NC(=O)c2cccc(N(C)C)c2)cc1NC(=O)c1ccc(O)cc1 + COc1cc2ncnc(Nc3ccc(Oc4ccccc4)cc3)c2cc1OC [SrcI1] (first compound 2 µM, partner dose 2 µM) | 101% | 139% | 120% | 126% | 72.5% | 99.3% | 456% | 260% | 53% | 86% | 56.4% | 41.5% | 158% | 106% | 120% | 104% | 82.2% | 80.5%
C[C@]1(c2nc3c(C(N)=O)cccc3[nH]2)CCCN1 [Veliparib] + COc1cc(N2CCC(N3CCN(C)CC3)CC2)ccc1Nc1ncc(Cl)c(Nc2ccccc2S(=O)(=O)C(C)C)n1 [NVP-TAE684] (first compound 1.4 µM, partner dose 0.08 µM) | 84.7% | 159% | 70.8% | 82.2% | 109% | 163% | 106% | 77.6% | 199% | 86.5% | 61.5% | 109% | 222% | 239% | 51.2% | 138% | 166% | 60%
Cn1cncc1[C@@](N)(c1ccc(Cl)cc1)c1ccc2c(c1)c(-c1cccc(Cl)c1)cc(=O)n2C [tipifarnib] + c1cc(-c2cnn3cc(-c4ccc(OCCN5CCCCC5)cc4)cnc23)ccn1 [Dorsomorphin] (first compound 0.01 µM, partner dose 0.4 µM) | 92.7% | 210% | 124% | 137% | 198% | 117% | 89.8% | 97.1% | 616% | 221% | 80.4% | 50.1% | 103% | 124% | 159% | 66.5% | 180% | 57.6%

Single records, from the list above. Order of values: cleaved PARP positive nuclei fraction (CBRC034)	cleaved PARP positive nuclei fraction (COLO792)	cleaved PARP positive nuclei fraction (COLO800)	cleaved PARP positive nuclei fraction (COLO829)	cleaved PARP positive nuclei fraction (G361)	cleaved PARP positive nuclei fraction (IPC-298)	cleaved PARP positive nuclei fraction (IST-MEL1)	cleaved PARP positive nuclei fraction (LB2518-MEL)	cleaved PARP positive nuclei fraction (LOXIMVI)	cleaved PARP positive nuclei fraction (MZ2-MEL)	cleaved PARP positive nuclei fraction (MeWo)	cleaved PARP positive nuclei fraction (RPMI7951)	cleaved PARP positive nuclei fraction (RVH-421)	cleaved PARP positive nuclei fraction (SkMel28)	cleaved PARP positive nuclei fraction (SkMel30)	cleaved PARP positive nuclei fraction (SkMel5)	cleaved PARP positive nuclei fraction (UACC257)	cleaved PARP positive nuclei fraction (UACC62)
CO[C@@H]1[C@H](N(C)C(=O)c2ccccc2)C[C@H]2O[C@]1(C)n1c3ccccc3c3c4c(c5c6ccccc6n2c5c31)C(=O)NC4 [Midostaurin] + O=C1NC(=O)/C(=C/c2ccc(-c3ccc(F)cc3O)o2)S1 [AS252424] (first compound 0.08 µM, partner dose 1 µM) in the list: 60.8%	235%	161%	112%	35%	380%	47.8%	268%	58%	75.1%	63.1%	90.9%	58.9%	230%	12.5%	87%	135%	136%
C[C@]1(c2nc3c(C(N)=O)cccc3[nH]2)CCCN1 [Veliparib] + COc1cc(N2CCC(N3CCN(C)CC3)CC2)ccc1Nc1ncc(Cl)c(Nc2ccccc2S(=O)(=O)C(C)C)n1 [NVP-TAE684] (first compound 1.4 µM, partner dose 0.08 µM) in the list: 84.7%	159%	70.8%	82.2%	109%	163%	106%	77.6%	199%	86.5%	61.5%	109%	222%	239%	51.2%	138%	166%	60%
